{"source": "the supplement of paper PMC8728848", "binders": {"B1": {"name": "SabA (Helicobacter pylori) (protein)", "chain": "MGSSHHHHHHSSGLVPRGSHMENLYFQGEDNGFFVSAGYQIGEAVQMVKNTGELKNLNEKYEQLSQYLNQVASLKQSIQNANNIELVNSSLNYLKSFTNNNYNSTTQSPIFNAVQAVITSVLGFWSLYAGNYFTFFVGKKVGDSGQPASVQGNPPFKTIIENCSGIENCAMDQTTYDKMKKLAEDLQAAQTNSATKGNNLCALSGCAATDSTSNPPNSTVSNALNLAQQLMDLIANTKTAMMWKNIVISGVSNTSGAITSTNYPTQYAVFNNIKAMIPILQQAVTLSQSNHTLSASLQAQATGSQTNPKFAKDIYTFAQNQKQVISYAQDIFNLFNSIPAEQYKYLEKAYLKIPNAGSTPTNPYRQVVNLNQEVQTIKNNVSYYGNRVDAALSVARDVYNLKSNQAEIVTAYNDAKTLSEEISKLPHNQVNTKDIVTLPYDKNAPAAGQSNYQINPEQQSNLNQALAAMSNNPFKKVGMISSQNNNGA"}}, "assay_in_all_cases": "glycan array binding signal (z-score within array); higher = stronger binding", "details_in_all_cases": "glycan notation: IUPAC condensed, linker removed", "key": {"[1]": {"target": "Neu5Ac(a2-6)GlcNAc(b1-4)GlcNAc(b1-4)GlcNAc", "in_short": "(§1)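 From the Consortium for Functional Glycomics database, 3228 arrays were curated, keeping only those whose protein sequence was available. Binding is given as a within-array Z-score averaged across arrays sharing a protein sequence and across linkers. Negative Z-scores can be read as non-binding.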"}, "Neu5Ac(a2-8)Neu5Ac": {"target": "Neu5Ac(a2-8)Neu5Ac", "in_short": "as §1"}, "[2]": {"target": "Neu5Ac(a2-8)Neu5Ac(a2-3)Gal(b1-3)GalNAc(b1-4)[Neu5Ac(a2-3)]Gal(b1-4)Glc", "in_short": "as §1"}, "[3]": {"target": "Neu5Ac(a2-8)Neu5Ac(a2-3)Gal(b1-3)GalNAc(b1-4)[Neu5Ac(a2-8)Neu5Ac(a2-3)]Gal(b1-4)Glc", "in_short": "as §1"}, "[4]": {"target": "Neu5Ac(a2-8)Neu5Ac(a2-3)Gal(b1-4)Glc", "in_short": "as §1"}, "[5]": {"target": "Neu5Ac(a2-8)Neu5Ac(a2-3)Gal(b1-4)GlcNAc", "in_short": "as §1"}, "[6]": {"target": "Neu5Ac(a2-8)Neu5Ac(a2-3)[Gal(b1-3)GalNAc(b1-4)]Gal(b1-4)Glc", "in_short": "as §1"}, "[7]": {"target": "Neu5Ac(a2-8)Neu5Ac(a2-3)[GalNAc(b1-4)]Gal(b1-4)Glc", "in_short": "as §1"}, "[8]": {"target": "Neu5Ac(a2-8)Neu5Ac(a2-8)Neu5Ac", "in_short": "as §1"}, "[9]": {"target": "Neu5Ac(a2-8)Neu5Ac(a2-8)Neu5Ac(a2-3)Gal(b1-4)Glc", "in_short": "as §1"}, "[10]": {"target": "Neu5Ac(a2-8)Neu5Ac(a2-8)Neu5Ac(a2-3)[Gal(b1-3)GalNAc(b1-4)]Gal(b1-4)Glc", "in_short": "as §1"}, "[11]": {"target": "Neu5Ac(a2-8)Neu5Ac(a2-8)Neu5Ac(a2-3)[GalNAc(b1-4)]Gal(b1-4)Glc", "in_short": "as §1"}, "[12]": {"target": "Neu5Ac(a2-8)Neu5Ac(a2-8)Neu5Ac(a2-8)Neu5Ac(a2-3)[GalNAc(b1-4)]Gal(b1-4)Glc", "in_short": "as §1"}, "[13]": {"target": "Neu5Ac(a2-8)Neu5Gc(a2-3)Gal(b1-4)GlcNAc", "in_short": "as §1"}, "[14]": {"target": "Neu5Ac(b2-6)Gal(b1-4)GlcNAc", "in_short": "as §1"}, "Neu5Ac(b2-6)GalNAc": {"target": "Neu5Ac(b2-6)GalNAc", "in_short": "as §1"}, "[15]": {"target": "Neu5Ac9Ac(a2-3)Gal(b1-3)GlcNAc", "in_short": "as §1"}, "[16]": {"target": "Neu5Ac9Ac(a2-3)Gal(b1-4)GlcNAc", "in_short": "as §1"}, "[17]": {"target": "Neu5Ac9Ac(a2-6)Gal(b1-4)GlcNAc", "in_short": "as §1"}, "[18]": {"target": "Neu5Gc(a2-3)Gal(b1-3)GlcNAc", "in_short": "as §1"}, "[19]": {"target": "Neu5Gc(a2-3)Gal(b1-3)[Fuc(a1-4)]GlcNAc", "in_short": "as §1"}, "Neu5Gc(a2-3)Gal(b1-4)Glc": {"target": "Neu5Gc(a2-3)Gal(b1-4)Glc", "in_short": "as §1"}, "[20]": {"target": "Neu5Gc(a2-3)Gal(b1-4)GlcNAc", "in_short": "as §1"}, "[21]": {"target": "Neu5Gc(a2-3)Gal(b1-4)GlcNAc(b1-3)Gal(b1-4)GlcNAc(b1-2)Man(a1-3)[Neu5Gc(a2-3)Gal(b1-4)GlcNAc(b1-3)Gal(b1-4)GlcNAc(b1-2)Man(a1-6)]Man(b1-4)GlcNAc(b1-4)GlcNAc", "in_short": "as §1"}, "[22]": {"target": "Neu5Gc(a2-3)Gal(b1-4)[Fuc(a1-3)]GlcNAc", "in_short": "as §1"}, "[23]": {"target": "Neu5Gc(a2-6)Gal(b1-4)GlcNAc", "in_short": "as §1"}, "Neu5Gc(a2-6)GalNAc": {"target": "Neu5Gc(a2-6)GalNAc", "in_short": "as §1"}, "[24]": {"target": "Neu5Gc(a2-8)Neu5Ac(a2-3)Gal(b1-4)GlcNAc", "in_short": "as §1"}, "[25]": {"target": "Neu5Gc(a2-8)Neu5Gc(a2-3)Gal(b1-4)GlcNAc", "in_short": "as §1"}, "[26]": {"target": "Neu5Gc(a2-8)Neu5Gc(a2-3)Gal(b1-4)GlcNAc(b1-3)Gal(b1-4)GlcNAc", "in_short": "as §1"}, "[27]": {"target": "Neu5Gc(a2-8)Neu5Gc(a2-6)Gal(b1-4)GlcNAc", "in_short": "as §1"}, "[28]": {"target": "Neu5Gc(b2-6)Gal(b1-4)GlcNAc", "in_short": "as §1"}}, "note": "The other results are listed elsewhere or left out.", "data": [{"binder": "B1", "values": [{"measurement": "glycan array binding signal (z-score)", "setting": "[1]", "result": -0.565}, {"measurement": "glycan array binding signal (z-score)", "setting": "Neu5Ac(a2-8)Neu5Ac", "result": -0.263}, {"measurement": "glycan array binding signal (z-score)", "setting": "[2]", "result": -0.646}, {"measurement": "glycan array binding signal (z-score)", "setting": "[3]", "result": 1.52}, {"measurement": "glycan array binding signal (z-score)", "setting": "[4]", "result": -0.812}, {"measurement": "glycan array binding signal (z-score)", "setting": "[5]", "result": -0.714}, {"measurement": "glycan array binding signal (z-score)", "setting": "[6]", "result": -0.068}, {"measurement": "glycan array binding signal (z-score)", "setting": "[7]", "result": -0.392}, {"measurement": "glycan array binding signal (z-score)", "setting": "[8]", "result": -0.39}, {"measurement": "glycan array binding signal (z-score)", "setting": "[9]", "result": -1}, {"measurement": "glycan array binding signal (z-score)", "setting": "[10]", "result": -0.628}, {"measurement": "glycan array binding signal (z-score)", "setting": "[11]", "result": -0.808}, {"measurement": "glycan array binding signal (z-score)", "setting": "[12]", "result": -0.747}, {"measurement": "glycan array binding signal (z-score)", "setting": "[13]", "result": -0.097}, {"measurement": "glycan array binding signal (z-score)", "setting": "[14]", "result": -0.3}, {"measurement": "glycan array binding signal (z-score)", "setting": "Neu5Ac(b2-6)GalNAc", "result": 0.916}, {"measurement": "glycan array binding signal (z-score)", "setting": "[15]", "result": -0.627}, {"measurement": "glycan array binding signal (z-score)", "setting": "[16]", "result": 0.184}, {"measurement": "glycan array binding signal (z-score)", "setting": "[17]", "result": -0.019}, {"measurement": "glycan array binding signal (z-score)", "setting": "[18]", "result": 0.006}, {"measurement": "glycan array binding signal (z-score)", "setting": "[19]", "result": -0.056}, {"measurement": "glycan array binding signal (z-score)", "setting": "Neu5Gc(a2-3)Gal(b1-4)Glc", "result": 0.049}, {"measurement": "glycan array binding signal (z-score)", "setting": "[20]", "result": -0.614}, {"measurement": "glycan array binding signal (z-score)", "setting": "[21]", "result": -0.015}, {"measurement": "glycan array binding signal (z-score)", "setting": "[22]", "result": -0.121}, {"measurement": "glycan array binding signal (z-score)", "setting": "[23]", "result": 0.779}, {"measurement": "glycan array binding signal (z-score)", "setting": "Neu5Gc(a2-6)GalNAc", "result": 0.191}, {"measurement": "glycan array binding signal (z-score)", "setting": "[24]", "result": -0.363}, {"measurement": "glycan array binding signal (z-score)", "setting": "[25]", "result": -0.611}, {"measurement": "glycan array binding signal (z-score)", "setting": "[26]", "result": -1.11}, {"measurement": "glycan array binding signal (z-score)", "setting": "[27]", "result": 0.027}, {"measurement": "glycan array binding signal (z-score)", "setting": "[28]", "result": 0.151}]}]}
